For part of these data: HELM strings list residues between dots; [ac] is acetyl, [am] amide, other brackets name non-standard units. No end group written: not given here.
Legend:
[1] = peptide made by a vendor (Fmoc solid-phase peptide synthesis; cellulose support (SPOT array)); details: whole synthesis, MALDI-ToF, scale of the general procedure 80 μg (SPOT array)
[2] = ratio between cytotoxic effect and antibacterial effect

Substance	final ms purity [1]	selectivity index [2]
PEPTIDE1{R.Q.Y.M.R.Q.I.E.Q.A.L.R.Y.G.Y.R.I.S.R.R.[am]}$$$$V2.0	>95%	
RYGYGGYGGGRYGGGYGSGR-NH2 [Fragment 2]		0.5
RQYMRQIEQALRYGYRISRR-NH2 [Guavanin 2]		23.93

From patent US20210183469A9 (priority 2018, published 2021)
